Source: PubChem BioAssay AID1259254 (NCATS, 2017)

- Assay: 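Finding genes that stop cells copying their DNA twice in one cycle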 (primary screen)
- Cell system: human HCT116 colorectal cancer cells
- Knock-down reagent: single siRNA against human genes
- Timing: 3 days
- Measurement: 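Nuclei stained with Hoechst and imaged; cell-cycle phase assigned by DNA content; G2 share scaled per plate, non-targeting siRNA 0%, GMNN siRNA 100%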
- Reading the numbers: G2 robust z-score and G2 cells, % of GMNN control: higher = more G2 cells, more excess DNA replication; raw share of cells in G2: higher = larger share of cells with G2 DNA content
- Hit rule: 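An siRNA counts as active if its G2 robust z-score lies at least 5 MADs above the screen median; here such calls match roughly 38% of GMNN control or more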
In all, the deposit lists about 59,000 reagents; below is a random part of them. About 1,550 of all reagents (2.6%) count as active. 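G2 share is only a proxy for re-replication; each gene was hit by three separate siRNAs, and active genes were retested.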 The raw values are shown without normalisation. Reagents against one gene are numbered here. No sequences are given here. The record does not give: the amount of reagent.

target gene | reagent no. | G2 robust z-score | G2 cells, % of GMNN control | raw share of cells in G2 (%) | activity call
SMG1 | 1 | -0.217 | 1.44 | 4.14 | inactive
SMG1 | 2 | -1.55 | -7.96 | 3.11 | inactive
SMG1 | 3 | 0.0194 | 3.1 | 6.32 | inactive
IL1RAPL2 | 1 | -0.311 | 0.783 | 4.71 | inactive
IL1RAPL2 | 2 | -0.289 | 0.935 | 4.34 | inactive
IL1RAPL2 | 3 | -0.352 | 0.494 | 3.47 | inactive
GNB1 | 1 | 6.69 | 50 | 23.4 | active
GNB1 | 2 | -0.617 | -1.37 | 4.74 | inactive
GNB1 | 3 | 2.1 | 17.7 | 9.97 | inactive
MPEG1 | 1 | 0.00473 | 3 | 4.67 | inactive
MPEG1 | 2 | -0.492 | -0.491 | 2.96 | inactive
MPEG1 | 3 | 4.44 | 34.2 | 14.1 | inactive
ZNF37BP | 1 | -0.596 | -1.22 | 2.71 | inactive
ZNF37BP | 2 | -0.649 | -1.6 | 2.68 | inactive
ZNF37BP | 3 | 0.775 | 8.42 | 6.63 | inactive
TSTD2 | 1 | -0.44 | -0.132 | 3.56 | inactive
TSTD2 | 2 | 1.17 | 11.2 | 6.72 | inactive
TSTD2 | 3 | -0.64 | -1.54 | 2.28 | inactive
B9D1 | 1 | 1.07 | 10.5 | 6.5 | inactive
B9D1 | 2 | -0.332 | 0.631 | 6.19 | inactive
B9D1 | 3 | 6.84 | 51.1 | 19.7 | active
SLC12A4 | 1 | -0.588 | -1.17 | 3.57 | inactive
SLC12A4 | 2 | -0.0464 | 2.64 | 6.57 | inactive
SLC12A4 | 3 | 1.64 | 14.5 | 9.53 | inactive
POLR2A | 1 | 4.29 | 33.2 | 16.4 | inactive
POLR2A | 2 | 1.69 | 14.9 | 10.4 | inactive
POLR2A | 3 | 3.2 | 25.5 | 12.6 | inactive
APOL1 | 1 | -0.854 | -3.04 | 3.78 | inactive
APOL1 | 2 | 6.79 | 50.8 | 24 | active
APOL1 | 3 | 0.0708 | 3.47 | 4.57 | inactive
PRRT1B | 1 | 3.86 | 30.1 | 15.2 | inactive
PRRT1B | 2 | -0.251 | 1.2 | 3.87 | inactive
PRRT1B | 3 | -0.928 | -3.56 | 1.91 | inactive
CARM1 | 1 | -0.444 | -0.159 | 5.63 | inactive
CARM1 | 2 | -0.741 | -2.25 | 3.12 | inactive
CARM1 | 3 | 1.08 | 10.6 | 10.7 | inactive
NUDT8 | 1 | -0.96 | -3.79 | 1.83 | inactive
NUDT8 | 2 | 0.794 | 8.55 | 5.92 | inactive
NUDT8 | 3 | -0.618 | -1.38 | 3.08 | inactive
FRMD7 | 1 | 0.0522 | 3.33 | 5.5 | inactive
FRMD7 | 2 | 1.1 | 10.7 | 6.35 | inactive
FRMD7 | 3 | 1.34 | 12.4 | 6.87 | inactive
AFM | 1 | 8.34 | 61.6 | 27 | active
AFM | 2 | -0.743 | -2.26 | 3.15 | inactive
AFM | 3 | 0.222 | 4.53 | 6.26 | inactive
ZNF552 | 1 | -0.749 | -2.31 | 1.98 | inactive
ZNF552 | 2 | -0.583 | -1.13 | 5.4 | inactive
ZNF552 | 3 | -0.357 | 0.456 | 3.78 | inactive

Reagents listed so far called active (4):
target gene | reagent no. | G2 robust z-score | G2 cells, % of GMNN control | raw share of cells in G2 (%) | activity call
GNB1 | 1 | 6.69 | 50 | 23.4 | active
B9D1 | 3 | 6.84 | 51.1 | 19.7 | active
APOL1 | 2 | 6.79 | 50.8 | 24 | active
AFM | 1 | 8.34 | 61.6 | 27 | active
